In the supplement of paper PMC10849652:
The list shows a part of the results.

Protein sequences, listed by entry. Tags and fused reporters are not part of them. Lines headed by an entry give the natural chain unless they say otherwise; changes in a name come on top.
UniProt Q9UHN1: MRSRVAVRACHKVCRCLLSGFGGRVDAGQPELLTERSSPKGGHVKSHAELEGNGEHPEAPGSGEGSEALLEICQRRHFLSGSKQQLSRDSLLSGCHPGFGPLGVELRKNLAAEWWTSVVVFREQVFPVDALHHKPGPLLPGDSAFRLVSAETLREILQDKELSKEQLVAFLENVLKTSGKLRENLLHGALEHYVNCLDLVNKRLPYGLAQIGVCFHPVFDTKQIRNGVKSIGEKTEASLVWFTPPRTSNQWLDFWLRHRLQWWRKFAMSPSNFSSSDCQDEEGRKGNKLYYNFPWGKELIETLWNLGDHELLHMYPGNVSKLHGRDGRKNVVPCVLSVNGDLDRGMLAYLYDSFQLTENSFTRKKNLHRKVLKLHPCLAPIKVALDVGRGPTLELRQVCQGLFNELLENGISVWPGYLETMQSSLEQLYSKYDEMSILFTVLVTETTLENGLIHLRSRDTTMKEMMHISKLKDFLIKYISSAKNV
UniProt Q9P215: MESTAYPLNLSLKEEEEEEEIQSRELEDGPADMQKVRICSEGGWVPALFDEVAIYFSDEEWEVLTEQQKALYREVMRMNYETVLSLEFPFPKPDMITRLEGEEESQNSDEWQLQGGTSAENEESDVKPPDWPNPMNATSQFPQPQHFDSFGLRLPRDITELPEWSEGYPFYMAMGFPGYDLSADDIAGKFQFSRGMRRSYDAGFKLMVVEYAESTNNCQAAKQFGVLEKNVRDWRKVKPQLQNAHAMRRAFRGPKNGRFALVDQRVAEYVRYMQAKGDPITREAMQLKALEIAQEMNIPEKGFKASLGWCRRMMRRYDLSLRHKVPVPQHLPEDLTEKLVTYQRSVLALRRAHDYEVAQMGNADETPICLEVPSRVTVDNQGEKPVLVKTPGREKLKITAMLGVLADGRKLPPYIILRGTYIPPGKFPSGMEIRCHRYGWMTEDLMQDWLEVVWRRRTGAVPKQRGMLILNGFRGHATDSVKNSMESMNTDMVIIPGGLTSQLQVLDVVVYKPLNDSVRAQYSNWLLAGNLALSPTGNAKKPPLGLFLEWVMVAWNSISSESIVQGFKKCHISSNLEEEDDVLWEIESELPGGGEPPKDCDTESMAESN
UniProt Q9Y2G5: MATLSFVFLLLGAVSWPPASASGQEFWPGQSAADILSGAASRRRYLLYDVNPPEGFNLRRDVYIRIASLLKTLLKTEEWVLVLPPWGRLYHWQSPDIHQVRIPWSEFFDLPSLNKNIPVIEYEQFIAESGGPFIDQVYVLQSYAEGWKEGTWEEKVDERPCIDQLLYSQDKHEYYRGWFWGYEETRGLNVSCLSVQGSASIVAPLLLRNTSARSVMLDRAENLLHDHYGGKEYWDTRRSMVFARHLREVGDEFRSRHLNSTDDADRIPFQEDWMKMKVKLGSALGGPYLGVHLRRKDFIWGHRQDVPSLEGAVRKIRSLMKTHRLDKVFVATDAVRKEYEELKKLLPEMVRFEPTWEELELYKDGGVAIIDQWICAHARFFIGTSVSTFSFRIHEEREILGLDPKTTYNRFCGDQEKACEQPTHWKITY
UniProt Q9Y535: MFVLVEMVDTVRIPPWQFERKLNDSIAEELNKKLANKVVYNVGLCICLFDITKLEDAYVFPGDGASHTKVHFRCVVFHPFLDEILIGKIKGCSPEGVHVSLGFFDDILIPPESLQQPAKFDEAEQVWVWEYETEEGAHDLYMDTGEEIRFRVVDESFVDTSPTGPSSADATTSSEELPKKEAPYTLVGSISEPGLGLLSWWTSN
UniProt Q9Y2S7: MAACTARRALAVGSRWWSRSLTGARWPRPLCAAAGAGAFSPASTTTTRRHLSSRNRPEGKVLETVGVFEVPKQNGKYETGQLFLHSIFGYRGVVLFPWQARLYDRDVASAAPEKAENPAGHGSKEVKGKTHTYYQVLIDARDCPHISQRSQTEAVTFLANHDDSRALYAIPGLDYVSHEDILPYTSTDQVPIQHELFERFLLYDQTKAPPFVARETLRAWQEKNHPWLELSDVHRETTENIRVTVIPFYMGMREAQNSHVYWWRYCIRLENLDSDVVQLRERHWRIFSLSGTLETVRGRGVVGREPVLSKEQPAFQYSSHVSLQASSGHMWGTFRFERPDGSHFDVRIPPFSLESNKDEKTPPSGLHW
UniProt O75817: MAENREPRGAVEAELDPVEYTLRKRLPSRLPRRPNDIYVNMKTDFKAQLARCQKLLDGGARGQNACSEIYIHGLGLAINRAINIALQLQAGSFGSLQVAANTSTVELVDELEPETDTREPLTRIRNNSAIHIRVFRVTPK
UniProt Q06203, whole entry, looked up: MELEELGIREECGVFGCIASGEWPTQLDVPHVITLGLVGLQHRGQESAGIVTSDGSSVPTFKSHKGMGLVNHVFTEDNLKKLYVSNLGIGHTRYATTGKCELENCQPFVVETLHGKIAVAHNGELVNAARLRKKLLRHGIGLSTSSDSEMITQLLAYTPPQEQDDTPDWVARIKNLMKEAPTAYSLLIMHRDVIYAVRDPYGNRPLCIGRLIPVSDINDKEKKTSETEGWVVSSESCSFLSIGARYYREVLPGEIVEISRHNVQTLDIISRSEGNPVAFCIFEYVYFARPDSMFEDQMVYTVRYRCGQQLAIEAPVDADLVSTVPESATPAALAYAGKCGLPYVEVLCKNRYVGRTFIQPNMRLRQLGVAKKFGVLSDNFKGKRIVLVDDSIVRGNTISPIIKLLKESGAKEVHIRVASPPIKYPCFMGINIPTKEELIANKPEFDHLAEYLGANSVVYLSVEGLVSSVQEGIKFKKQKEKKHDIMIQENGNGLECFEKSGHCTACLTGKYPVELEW
UniProt Q9BT43: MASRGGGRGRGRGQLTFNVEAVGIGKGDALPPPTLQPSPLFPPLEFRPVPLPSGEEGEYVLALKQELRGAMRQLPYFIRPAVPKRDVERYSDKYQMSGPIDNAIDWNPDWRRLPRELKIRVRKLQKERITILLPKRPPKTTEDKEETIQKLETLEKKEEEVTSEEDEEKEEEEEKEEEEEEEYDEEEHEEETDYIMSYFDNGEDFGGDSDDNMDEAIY
UniProt Q9NRX1: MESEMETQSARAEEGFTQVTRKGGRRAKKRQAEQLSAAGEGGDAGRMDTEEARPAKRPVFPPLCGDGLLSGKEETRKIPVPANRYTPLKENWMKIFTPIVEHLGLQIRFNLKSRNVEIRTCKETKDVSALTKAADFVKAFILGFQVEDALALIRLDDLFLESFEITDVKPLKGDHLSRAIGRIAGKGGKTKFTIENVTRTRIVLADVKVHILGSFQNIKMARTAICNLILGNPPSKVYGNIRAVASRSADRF
UniProt Q9H5K3: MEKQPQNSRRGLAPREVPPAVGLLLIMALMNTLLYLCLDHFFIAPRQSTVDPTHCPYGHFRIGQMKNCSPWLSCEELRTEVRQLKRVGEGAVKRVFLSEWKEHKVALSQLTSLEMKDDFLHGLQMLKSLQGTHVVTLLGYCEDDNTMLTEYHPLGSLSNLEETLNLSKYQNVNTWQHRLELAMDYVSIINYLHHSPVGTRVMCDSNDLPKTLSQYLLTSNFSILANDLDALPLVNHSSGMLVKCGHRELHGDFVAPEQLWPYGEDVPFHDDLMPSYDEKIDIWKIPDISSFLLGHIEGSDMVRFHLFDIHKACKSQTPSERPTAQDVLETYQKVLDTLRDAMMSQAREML
UniProt P54277: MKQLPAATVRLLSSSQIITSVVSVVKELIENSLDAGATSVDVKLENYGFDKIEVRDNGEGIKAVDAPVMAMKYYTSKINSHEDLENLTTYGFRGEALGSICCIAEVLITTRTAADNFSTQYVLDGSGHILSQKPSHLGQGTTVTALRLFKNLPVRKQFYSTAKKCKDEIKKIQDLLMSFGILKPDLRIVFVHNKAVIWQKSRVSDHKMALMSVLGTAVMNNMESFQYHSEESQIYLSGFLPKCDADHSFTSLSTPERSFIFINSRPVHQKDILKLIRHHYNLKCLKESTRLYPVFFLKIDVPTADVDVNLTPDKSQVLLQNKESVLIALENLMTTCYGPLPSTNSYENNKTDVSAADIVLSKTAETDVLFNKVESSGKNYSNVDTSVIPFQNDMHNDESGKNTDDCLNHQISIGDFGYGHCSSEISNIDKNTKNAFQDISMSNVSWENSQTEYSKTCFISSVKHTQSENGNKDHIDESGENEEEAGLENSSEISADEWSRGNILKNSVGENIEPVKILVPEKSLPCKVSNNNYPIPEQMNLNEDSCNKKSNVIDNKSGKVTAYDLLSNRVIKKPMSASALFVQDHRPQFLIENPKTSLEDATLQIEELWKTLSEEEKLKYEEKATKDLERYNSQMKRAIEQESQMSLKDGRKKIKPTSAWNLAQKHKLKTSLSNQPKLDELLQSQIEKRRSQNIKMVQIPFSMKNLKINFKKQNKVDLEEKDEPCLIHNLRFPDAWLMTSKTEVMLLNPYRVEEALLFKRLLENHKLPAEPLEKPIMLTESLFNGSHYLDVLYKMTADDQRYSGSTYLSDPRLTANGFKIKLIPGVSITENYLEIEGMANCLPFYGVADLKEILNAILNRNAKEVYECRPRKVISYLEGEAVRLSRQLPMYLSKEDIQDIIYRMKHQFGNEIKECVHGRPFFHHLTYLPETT
UniProt Q6UW63: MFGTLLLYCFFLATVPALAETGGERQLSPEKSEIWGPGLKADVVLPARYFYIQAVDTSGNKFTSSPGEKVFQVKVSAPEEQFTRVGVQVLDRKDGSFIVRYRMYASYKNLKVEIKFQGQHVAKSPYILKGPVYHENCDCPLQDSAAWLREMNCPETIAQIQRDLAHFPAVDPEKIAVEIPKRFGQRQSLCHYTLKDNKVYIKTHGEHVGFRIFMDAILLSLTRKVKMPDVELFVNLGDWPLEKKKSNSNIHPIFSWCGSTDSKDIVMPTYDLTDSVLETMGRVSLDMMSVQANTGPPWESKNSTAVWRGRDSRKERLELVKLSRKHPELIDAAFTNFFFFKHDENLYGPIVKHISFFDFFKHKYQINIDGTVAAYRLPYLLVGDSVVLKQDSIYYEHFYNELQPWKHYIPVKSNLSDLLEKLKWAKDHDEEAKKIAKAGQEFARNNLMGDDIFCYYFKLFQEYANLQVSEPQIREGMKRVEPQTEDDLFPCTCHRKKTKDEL
UniProt O15162: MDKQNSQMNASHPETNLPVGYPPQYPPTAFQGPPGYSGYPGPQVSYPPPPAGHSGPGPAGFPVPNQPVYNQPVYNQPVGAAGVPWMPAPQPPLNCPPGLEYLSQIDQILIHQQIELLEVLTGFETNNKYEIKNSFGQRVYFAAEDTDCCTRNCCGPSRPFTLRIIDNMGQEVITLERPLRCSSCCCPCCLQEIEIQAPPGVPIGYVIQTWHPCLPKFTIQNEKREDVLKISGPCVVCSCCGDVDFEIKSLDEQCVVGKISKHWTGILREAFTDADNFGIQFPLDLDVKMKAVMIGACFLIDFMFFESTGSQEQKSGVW
UniProt O94903: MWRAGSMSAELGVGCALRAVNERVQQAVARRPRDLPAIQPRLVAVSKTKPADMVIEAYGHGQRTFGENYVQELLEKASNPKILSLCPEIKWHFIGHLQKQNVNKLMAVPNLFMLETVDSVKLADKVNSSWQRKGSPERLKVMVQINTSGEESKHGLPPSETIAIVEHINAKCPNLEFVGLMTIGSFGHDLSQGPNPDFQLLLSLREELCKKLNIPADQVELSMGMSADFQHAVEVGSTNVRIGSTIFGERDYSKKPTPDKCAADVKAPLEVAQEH
UniProt Q99541: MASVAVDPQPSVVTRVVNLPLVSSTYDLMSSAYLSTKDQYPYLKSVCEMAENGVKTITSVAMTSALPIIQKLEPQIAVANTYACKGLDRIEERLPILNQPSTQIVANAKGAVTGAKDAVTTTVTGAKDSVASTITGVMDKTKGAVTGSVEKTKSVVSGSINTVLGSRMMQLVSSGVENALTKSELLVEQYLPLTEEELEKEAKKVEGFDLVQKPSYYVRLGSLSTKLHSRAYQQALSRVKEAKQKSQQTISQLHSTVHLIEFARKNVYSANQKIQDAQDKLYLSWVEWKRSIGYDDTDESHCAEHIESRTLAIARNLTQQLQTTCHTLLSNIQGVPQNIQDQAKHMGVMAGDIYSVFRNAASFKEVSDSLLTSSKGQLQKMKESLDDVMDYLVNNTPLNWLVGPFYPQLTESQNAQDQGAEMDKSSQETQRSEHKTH

Columns and labels:
Test in all cases: log2 fold change, soluble protein after heating vs DMSO (PISA); higher = thermal stabilisation; K562 lysate, 10 uM; active = over 0.2 and 3.5 SD of the protein, either way, in both replicates (recomputed)
erlotinib = compound: C#Cc1cccc(Nc2ncnc3cc(OCCOC)c(OCCOC)cc23)c1 [erlotinib]
Procedure, shortened: (§1)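 K562 pellets were dounce-homogenised in PBS pH 7.4 with 1 mM MgCl2, and the crude extract at 1 mg/mL protein was treated with 10 μM compound for 30 min. Aliquots were heated for 3 min across 48°C-58°C, pooled, and brought to 0.5% NP-40 at 4°C; soluble protein was the supernatant after 21,000xg for 90 min. Soluble protein was quantified by TMTpro 16plex LC-MS/MS with channel sums equalised, and reported as log2 fold change in thermal stability against DMSO controls, with values from duplicates.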

[1] = compound: C/C(=N\NC(=O)C1=CC(=CC=C1)S(=O)(=O)N2CCOCC2)/C3=C(C=CC(=C3)Cl)O
Procedure, shortened: as §1

[2] = compound: C1=CC(=CC=C1C2=NC3=C(N2)C=C(C=C3)C(=O)N)OC4=CC=C(C=C4)Cl
Procedure, shortened: as §1

[3] = compound: C1=CC2=C(C=CC(=C2)/C=C\3/C(=O)NC(=NCC4=CC=CS4)S3)N=C1
Procedure, shortened: as §1

[4] = compound: C1=CC2=NC=CN=C2C=C1/C=C/3\C(=O)NC(=O)S3
Procedure, shortened: as §1

[5] = compound: C1=CC=C(C=C1)C2=NC(=C(N2)C3=CC=NC=C3)C4=CC(=C(C=C4)Cl)O
Procedure, shortened: as §1

[6] = compound: C1=CC=C2C(=C1)C3=NNC4=CC=CC(=C43)C2=O
Procedure, shortened: as §1

[7] = compound: C1CCN(C1)C(=O)NC2=CC=CC(=C2)NC3=NC=C(C(=N3)NCCC4=CN=CN4)Br
Procedure, shortened: as §1

[8] = compound: C1CN(CCC1(CC2=CC=C(C=C2)Cl)N)C3=NC=NC4=C3C=CN4
Procedure, shortened: as §1

IRAK-1-4 Inhibitor I = compound: C1COCCN1CCN2C3=CC=CC=C3N=C2NC(=O)C4=CC(=CC=C4)[N+](=O)[O-] [IRAK-1-4 Inhibitor I]
Procedure, shortened: as §1

Measured: log2 fold change

POLG2 (UniProt Q9UHN1)
inactive: erlotinib -0.015 | [1] -0.154 | [2] 0.002 | [3] 0.01 | [4] 0 | [5] -0.013 | [6] -0.018 | [7] -0.022 | [8] 0.018 | IRAK-1-4 Inhibitor I 0.032

POGK (UniProt Q9P215)
inactive: erlotinib 0.052 | [1] 0.053 | [2] 0.034 | [3] -0.059 | [4] -0.023 | [5] 0.104 | [6] -0.03 | [7] 0 | [8] 0.022 | IRAK-1-4 Inhibitor I 0.025

PLRG1 (UniProt O43660)
inactive: erlotinib -0.128 | [1] -0.071 | [2] 0.025 | [3] 0.021 | [4] -0.066 | [5] 0.026 | [6] -0.041 | [7] 0.012 | [8] -0.033 | IRAK-1-4 Inhibitor I -0.008

POFUT2 (UniProt Q9Y2G5)
inactive: erlotinib 0.025 | [1] 0.018 | [2] 0.088 | [3] 0.008 | [4] -0.016 | [5] -0.04 | [6] -0.019 | [7] 0.012 | [8] 0 | IRAK-1-4 Inhibitor I 0.073

POLR3H (UniProt Q9Y535)
inactive: erlotinib 0.148 | [1] -0.014 | [2] 0.064 | [3] 0.047 | [4] -0.044 | [5] -0.052 | [6] -0.023 | [7] -0.006 | [8] 0.027 | IRAK-1-4 Inhibitor I 0.095

POLDIP2 (UniProt Q9Y2S7)
inactive: erlotinib -0.022 | [1] -0.03 | [2] -0.007 | [3] 0.012 | [4] -0.022 | [5] -0.002 | [6] -0.053 | [7] 0.027 | [8] 0.031 | IRAK-1-4 Inhibitor I -0.013

POP7 (UniProt O75817)
inactive: erlotinib 0.024 | [1] -0.091 | [2] 0.075 | [3] 0.017 | [4] -0.006 | [5] -0.017 | [6] 0.031 | [7] 0.03 | [8] 0.042 | IRAK-1-4 Inhibitor I 0.037

Looked up one by one from the list above (2):
PLRG1 (UniProt O43660)
inactive: erlotinib -0.128 | [1] -0.071 | [2] 0.025 | [3] 0.021 | [4] -0.066 | [5] 0.026 | [6] -0.041 | [7] 0.012 | [8] -0.033 | IRAK-1-4 Inhibitor I -0.008

POLG2 (UniProt Q9UHN1)
inactive: erlotinib -0.015 | [1] -0.154 | [2] 0.002 | [3] 0.01 | [4] 0 | [5] -0.013 | [6] -0.018 | [7] -0.022 | [8] 0.018 | IRAK-1-4 Inhibitor I 0.032

(next part)

PPAT (UniProt Q06203)
inactive: erlotinib -0.014 | [1] -0.034 | [2] 0.027 | [3] -0.011 | [4] 0.014 | [5] 0.012 | [6] 0.024 | [7] -0.013 | [8] -0.001 | IRAK-1-4 Inhibitor I 0.044

POLR3GL (UniProt Q9BT43)
inactive: erlotinib -0.055 | [1] -0.053 | [2] -0.026 | [3] -0.041 | [4] 0.033 | [5] -0.008 | [6] 0.005 | [7] -0.006 | [8] 0.033 | IRAK-1-4 Inhibitor I 0.038

PNPLA2 (UniProt Q96AD5)
inactive: erlotinib -0.019 | [1] -0.02 | [2] -0.016 | [3] 0.098 | [4] -0.002 | [5] 0.014 | [6] 0.012 | [7] -0.003 | [8] 0.077 | IRAK-1-4 Inhibitor I -0.014

POLR2D (UniProt O15514)
inactive: erlotinib -0.07 | [1] 0.016 | [2] -0.005 | [3] -0.072 | [4] 0.035 | [5] -0.003 | [6] 0.167 | [7] 0.014 | [8] 0.104 | IRAK-1-4 Inhibitor I 0.017

POLR1C (UniProt O15160)
inactive: erlotinib 0.002 | [1] -0.008 | [2] -0.088 | [3] 0 | [4] 0.024 | [5] -0.024 | [6] 0.072 | [7] -0.015 | [8] 0.023 | IRAK-1-4 Inhibitor I -0.04

POT1 (UniProt Q9NUX5)
inactive: erlotinib -0.127 | [1] -0.021 | [2] -0.121 | [3] 0.194 | [4] 0.044 | [5] 0.092 | [6] -0.052 | [7] 0.01 | [8] 0.063 | IRAK-1-4 Inhibitor I 0.071

PNKP (UniProt Q96T60)
inactive: erlotinib -0.187 | [1] 0.02 | [2] 0.083 | [3] 0.082 | [4] -0.06 | [5] -0.011 | [6] -0.035 | [7] -0.009 | [8] 0.039 | IRAK-1-4 Inhibitor I -0.018

PNO1 (UniProt Q9NRX1)
inactive: erlotinib 0.044 | [1] 0.027 | [2] -0.029 | [3] 0.018 | [4] -0.016 | [5] 0.028 | [6] -0.011 | [7] -0.003 | [8] -0.006 | IRAK-1-4 Inhibitor I 0.041

POTEI (UniProt P0CG38)
inactive: erlotinib 0.016 | [1] 0.005 | [2] 0.001 | [3] -0.018 | [4] -0.022 | [5] -0.03 | [6] -0.02 | [7] 0.021 | [8] 0.015 | IRAK-1-4 Inhibitor I 0

PNPLA6 (UniProt Q8IY17)
inactive: erlotinib 0.197 | [1] 0.207 | [2] 0.048 | [3] -0.032 | [4] -0.055 | [5] -0.257 | [6] -0.092 | [7] 0.11 | [8] 0.009 | IRAK-1-4 Inhibitor I 0.108

POLE (UniProt Q07864)
inactive: erlotinib 0.053 | [1] 0.002 | [2] -0.054 | [3] 0.032 | [4] 0.038 | [5] 0.022 | [6] -0.033 | [7] -0.004 | [8] 0.018 | IRAK-1-4 Inhibitor I 0.04

POR (UniProt P16435)
inactive: erlotinib -0.011 | [1] 0.004 | [2] 0.045 | [3] 0.025 | [4] -0.014 | [5] -0.008 | [6] -0.072 | [7] -0.024 | [8] 0.03 | IRAK-1-4 Inhibitor I 0.004

POMK (UniProt Q9H5K3)
inactive: erlotinib -0.085 | [1] 0.052 | [2] -0.142 | [3] -0.13 | [4] 0.065 | [5] -0.05 | [6] -0.04 | [7] -0.074 | [8] 0.076 | IRAK-1-4 Inhibitor I -0.135

POLR1E (UniProt Q9GZS1)
inactive: erlotinib -0.016 | [1] -0.032 | [2] 0.041 | [3] -0.025 | [4] -0.021 | [5] 0.014 | [6] 0 | [7] 0.007 | [8] -0.025 | IRAK-1-4 Inhibitor I -0.069

PMS1 (UniProt P54277)
inactive: erlotinib -0.024 | [1] 0.012 | [2] 0.041 | [3] -0.002 | [4] 0.106 | [5] 0.03 | [6] -0.094 | [7] -0.002 | [8] 0.016 | IRAK-1-4 Inhibitor I -0.027

POLRMT (UniProt O00411)
inactive: erlotinib -0.015 | [1] 0.006 | [2] -0.002 | [3] -0.084 | [4] -0.073 | [5] -0.021 | [6] -0.117 | [7] -0.032 | [8] -0.06 | IRAK-1-4 Inhibitor I -0.004

POGLUT2 (UniProt Q6UW63)
inactive: erlotinib 0.029 | [1] -0.053 | [2] -0.038 | [3] 0.021 | [4] 0.011 | [5] -0.04 | [6] -0.049 | [7] 0.008 | [8] 0.048 | IRAK-1-4 Inhibitor I 0.033

PLSCR1 (UniProt O15162)
inactive: erlotinib 0.013 | [1] 0.049 | [2] 0.004 | [3] -0.018 | [4] 0.024 | [5] 0.03 | [6] -0.024 | [7] 0.018 | [8] 0.017 | IRAK-1-4 Inhibitor I 0.006

POFUT1 (UniProt Q9H488)
inactive: erlotinib 0.026 | [1] 0.025 | [2] 0.021 | [3] 0.038 | [4] -0.03 | [5] -0.004 | [6] 0.022 | [7] 0.005 | [8] -0.009 | IRAK-1-4 Inhibitor I 0.022

PLPBP (UniProt O94903)
inactive: erlotinib -0.014 | [1] -0.089 | [2] 0.059 | [3] -0.004 | [4] 0 | [5] -0.006 | [6] -0.033 | [7] -0.001 | [8] 0.004 | IRAK-1-4 Inhibitor I -0.021

PLIN2 (UniProt Q99541)
inactive: erlotinib 0.013 | [1] 0.024 | [2] -0.093 | [3] 0.004 | [4] 0.028 | [5] -0.015 | [6] -0.045 | [7] 0.021 | [8] -0.042 | IRAK-1-4 Inhibitor I 0

PLXNB2 (UniProt O15031)
inactive: erlotinib -0.014 | [1] -0.027 | [2] -0.013 | [3] -0.04 | [4] -0.037 | [5] 0.005 | [6] -0.018 | [7] -0.017 | [8] 0.049 | IRAK-1-4 Inhibitor I 0.004

PLXNA1 (UniProt Q9UIW2)
inactive: erlotinib -0.026 | [1] -0.012 | [2] -0.034 | [3] -0.01 | [4] 0.007 | [5] -0.013 | [6] -0.021 | [7] 0.012 | [8] 0.032 | IRAK-1-4 Inhibitor I 0.007
